This experiment has as its target p85 subunit of the PI3-kinase (human) (UniProt P27986). The experiment in a line: co-immunoprecipitation, anti-p85 immunoblot, Jurkat cells.

Amino acid sequences for entries named in this document (tags omitted). Residues count along the entry.
UniProt P27986: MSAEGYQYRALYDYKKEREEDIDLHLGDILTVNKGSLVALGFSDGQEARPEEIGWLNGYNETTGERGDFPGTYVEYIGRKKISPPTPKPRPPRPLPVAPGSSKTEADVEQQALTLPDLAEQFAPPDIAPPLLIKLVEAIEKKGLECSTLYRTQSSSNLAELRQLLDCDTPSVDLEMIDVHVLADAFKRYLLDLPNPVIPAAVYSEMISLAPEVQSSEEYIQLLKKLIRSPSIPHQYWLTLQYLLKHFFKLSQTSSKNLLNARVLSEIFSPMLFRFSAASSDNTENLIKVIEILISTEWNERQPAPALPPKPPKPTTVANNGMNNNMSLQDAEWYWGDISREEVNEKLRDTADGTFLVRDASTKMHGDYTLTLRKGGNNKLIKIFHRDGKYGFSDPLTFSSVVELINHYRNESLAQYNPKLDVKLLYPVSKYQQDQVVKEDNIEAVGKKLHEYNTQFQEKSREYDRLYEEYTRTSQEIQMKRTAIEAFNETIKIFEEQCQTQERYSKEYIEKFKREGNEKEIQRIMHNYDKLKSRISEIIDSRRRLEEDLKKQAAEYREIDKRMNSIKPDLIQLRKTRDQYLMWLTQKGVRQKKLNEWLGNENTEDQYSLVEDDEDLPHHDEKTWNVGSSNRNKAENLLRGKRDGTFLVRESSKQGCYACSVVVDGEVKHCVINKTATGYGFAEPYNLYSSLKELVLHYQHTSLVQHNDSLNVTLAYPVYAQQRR
UniProt P10747, residues 19-220: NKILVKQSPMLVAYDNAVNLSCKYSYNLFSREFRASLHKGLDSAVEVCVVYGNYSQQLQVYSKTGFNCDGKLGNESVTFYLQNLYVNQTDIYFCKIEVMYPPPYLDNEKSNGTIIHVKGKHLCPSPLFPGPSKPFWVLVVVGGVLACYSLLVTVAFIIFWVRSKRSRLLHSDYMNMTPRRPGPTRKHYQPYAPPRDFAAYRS

No constants are given. Whether binding was seen depends on the method and setting. In cells and extracts the contact can be indirect. Some results given as binding are weak or reduced against the parent protein; the word gives no strength.

The source of these data is patent US20020018783A1.

In the case of “endogenous CD28 (human, on Jurkat cells and primary T lymphocytes) (from UniProt P10747 19-220) (receptor)”, the binding entry is on record as “binds”.
